Assay results from PMC5011358.
The exact form of at least one protein or probe is not confirmed. At least one verdict was read from the data and is not stated in words by the source.

System: Six1 + Six4
Assay: EMSA
Details: labeled probe, Six1 and Six4 mixed; EMSA as previously described (ref 38); pH and temperature not given; protein translated in vitro

“TGGGGGGGCTCAGGTTTCTGTGGCGT (double strand) [Myogenin MEF3]”: binds.
